Data set [1] addresses myogenin (UniProt P12979). In words: EMSA. To be noted: myotube extracts, shifted complex not detectable with mutant probe; 10 mM Tris pH 7.5, 40 mM KCl, 0.5 mM DTT, 10% glycerol, 1 ug poly(dIdC), 10-14 ug nuclear extract, 25 min room temperature; 5% gel at 10 C; protein in an extract; label: 32P (dCTP fill-in).
For data set [2], the system named is MEF-2. In words: EMSA. Conditions: myotube extracts, no specific complex with mutant probe; 10 mM Tris pH 7.5, 40 mM KCl, 0.5 mM DTT, 10% glycerol, 1 ug poly(dIdC), 10-14 ug nuclear extract, 25 min room temperature; 5% gel at 10 C; protein in an extract; label: 32P (dCTP fill-in).

Chains of the proteins cited; added tags and fusions are not shown. Lines headed by an entry give the natural chain unless they say otherwise; changes in a name come on top.
UniProt P12979: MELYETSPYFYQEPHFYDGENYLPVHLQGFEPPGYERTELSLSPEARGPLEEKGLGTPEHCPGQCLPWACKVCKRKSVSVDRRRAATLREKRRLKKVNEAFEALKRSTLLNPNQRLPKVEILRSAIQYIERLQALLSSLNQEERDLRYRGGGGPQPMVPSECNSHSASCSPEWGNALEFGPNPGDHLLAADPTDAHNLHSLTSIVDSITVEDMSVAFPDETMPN

Construct, isoform or probe ends are uncertain for at least one entry. Results from cells or extracts need not show a direct contact. Negatives hold for the conditions tested.

On to “GGCATTTCTGAGTGGCTCTGTGGCGACA (double strand) [ART1 E box mut]”, for which the binding result in data set [1] is “no binding”.
“GGAGGAGACAGAGTGAACACGACGAGTGTC (double strand) [ART1 A/T-rich mut]”: the binding result in data set [2] is on record as “no binding”.

For the origin of these results see PMC2575215.
